In publication PMC6450876:
Results are given in words; binding and its absence hold for the method and conditions named. Binding seen in cells or lysates may run through a third protein. A yes stands for co-enrichment or nearness to the bait. Other partners may have been found. Where a sequence is shown, tags or fusion partners need not be part of it.

Chains of the proteins cited; added tags and fusions are not shown.
UniProt O43474: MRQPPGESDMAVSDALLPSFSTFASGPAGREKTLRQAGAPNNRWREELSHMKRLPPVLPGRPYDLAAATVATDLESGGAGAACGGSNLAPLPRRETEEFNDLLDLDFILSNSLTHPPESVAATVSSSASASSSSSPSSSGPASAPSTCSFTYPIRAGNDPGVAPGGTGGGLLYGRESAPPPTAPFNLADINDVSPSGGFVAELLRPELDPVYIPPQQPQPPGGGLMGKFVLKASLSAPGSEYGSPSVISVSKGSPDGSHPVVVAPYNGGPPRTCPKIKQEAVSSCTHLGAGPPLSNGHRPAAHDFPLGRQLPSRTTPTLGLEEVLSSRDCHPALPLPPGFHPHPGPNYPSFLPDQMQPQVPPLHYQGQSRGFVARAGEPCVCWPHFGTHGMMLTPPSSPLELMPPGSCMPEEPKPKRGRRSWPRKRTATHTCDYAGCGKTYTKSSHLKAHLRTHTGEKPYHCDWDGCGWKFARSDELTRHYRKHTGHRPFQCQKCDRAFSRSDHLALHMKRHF

Biological target: T1, SET8 tagged with Flag epitope (Ad-SET8) (UniProt Q9NQR1)
T1 sequence: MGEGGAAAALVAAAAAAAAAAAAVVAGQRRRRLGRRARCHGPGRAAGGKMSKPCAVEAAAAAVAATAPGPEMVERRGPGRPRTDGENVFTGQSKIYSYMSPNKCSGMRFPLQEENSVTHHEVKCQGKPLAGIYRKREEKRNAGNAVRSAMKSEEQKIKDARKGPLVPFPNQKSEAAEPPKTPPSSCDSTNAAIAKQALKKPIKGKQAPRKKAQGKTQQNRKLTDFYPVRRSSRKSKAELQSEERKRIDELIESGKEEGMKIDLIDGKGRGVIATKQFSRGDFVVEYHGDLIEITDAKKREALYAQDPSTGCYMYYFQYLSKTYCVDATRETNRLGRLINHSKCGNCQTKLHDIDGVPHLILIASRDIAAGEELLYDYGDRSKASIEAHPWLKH
Assay: affinity purification with mass spectrometry; 97H cells infected with Ad-GFP or Ad-SET8 (Flag); nuclear extracts immunoprecipitated with anti-FLAG M2 agarose; flag peptide; SDS-PAGE, silver staining; differential bands analysed by mass spectrometry

binding: binds
Substance: Krüppel-like factor 4 (KLF4), endogenous in HCC cells (from UniProt O43474 1-513)
